# Screen size: about 260,000 compounds; about 1,500 (0.58%) were called active. This list was built around the results that the source calls inconclusive (neither active nor inactive); the mix of calls is not that of the screen.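 How the source made its calls: active means inhibition above a set limit at one or more doses, reproduced on every date tested; inconclusive means results disagree between test dates, or hit never tested in dose response; inactive means the rest.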
# Protein sequences, listed by entry. Tags and fused reporters are not part of them. Lines headed by an entry give the natural chain unless they say otherwise; changes in a name come on top.
# UniProt P69720: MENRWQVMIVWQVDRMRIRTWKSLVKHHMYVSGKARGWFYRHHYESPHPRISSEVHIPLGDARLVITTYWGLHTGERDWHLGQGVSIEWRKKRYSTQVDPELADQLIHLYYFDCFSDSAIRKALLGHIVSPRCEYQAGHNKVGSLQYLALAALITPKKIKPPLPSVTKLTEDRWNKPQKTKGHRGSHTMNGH
# UniProt P69721: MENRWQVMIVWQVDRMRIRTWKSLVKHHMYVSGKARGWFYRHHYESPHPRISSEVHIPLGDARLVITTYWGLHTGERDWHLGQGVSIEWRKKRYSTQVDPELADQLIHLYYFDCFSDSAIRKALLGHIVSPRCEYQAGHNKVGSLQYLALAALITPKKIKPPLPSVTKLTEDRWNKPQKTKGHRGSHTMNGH
# UniProt P69722: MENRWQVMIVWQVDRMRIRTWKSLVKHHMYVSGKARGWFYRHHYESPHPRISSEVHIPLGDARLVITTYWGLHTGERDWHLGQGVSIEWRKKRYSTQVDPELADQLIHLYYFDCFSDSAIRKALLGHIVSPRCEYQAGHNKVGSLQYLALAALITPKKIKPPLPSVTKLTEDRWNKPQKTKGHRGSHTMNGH
# UniProt P69723: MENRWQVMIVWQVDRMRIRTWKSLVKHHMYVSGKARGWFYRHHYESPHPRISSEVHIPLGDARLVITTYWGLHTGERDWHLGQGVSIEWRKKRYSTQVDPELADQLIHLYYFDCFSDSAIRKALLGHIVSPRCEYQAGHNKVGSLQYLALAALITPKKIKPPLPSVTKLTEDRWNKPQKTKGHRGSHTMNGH
# UniProt Q9HC16: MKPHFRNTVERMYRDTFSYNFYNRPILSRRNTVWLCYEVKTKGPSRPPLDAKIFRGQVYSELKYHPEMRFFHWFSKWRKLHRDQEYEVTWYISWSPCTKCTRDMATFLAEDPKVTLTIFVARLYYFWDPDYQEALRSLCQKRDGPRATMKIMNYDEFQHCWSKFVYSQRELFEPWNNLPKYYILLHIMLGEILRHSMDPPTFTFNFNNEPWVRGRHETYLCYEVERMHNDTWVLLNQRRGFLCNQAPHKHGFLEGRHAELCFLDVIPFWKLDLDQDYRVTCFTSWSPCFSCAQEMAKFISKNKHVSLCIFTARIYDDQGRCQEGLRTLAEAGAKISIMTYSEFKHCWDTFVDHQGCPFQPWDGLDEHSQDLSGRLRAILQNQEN
# Biological target: Virion infectivity factor (Human immunodeficiency virus type 1 group M subtype B (isolate BH10)) + Virion infectivity factor (Human immunodeficiency virus type 1 group M subtype B (isolate BRU/LAI)) + Virion infectivity factor (Human immunodeficiency virus type 1 group M subtype B (isolate PCV12)) + Virion infectivity factor (Human immunodeficiency virus type 1 group M subtype B (isolate HXB2)) + DNA dC->dU-editing enzyme APOBEC-3G (Homo sapiens) (UniProt P69720+P69721+P69722+P69723+Q9HC16)
# Experiment: inhibitors of Vif binding to APOBEC3G peptide, primary screen, biochemical, TR-FRET, GST-Vif 1-94, biotin-A3G peptide, dose response retest (AID 1117319);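 further: Vif residues 1-94 fused to GST binding biotinylated APOBEC3G peptide 110-148; 0% = full assay without inhibitor and 100% = GST in place of GST-Vif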
# Settings: active compounds read high
row,Structure (SMILES),inhibition
1,CCN1CCN(C(=O)c2ccc(CS(=O)(=O)Cc3ccccc3F)o2)CC1,inconclusive: 33.7%
2,Cn1c(=O)c(C(=O)CCl)c(N)n(Cc2ccccc2)c1=O,inconclusive: 45.2%
3,CCCCCCCCCCCC(=O)c1c(O)cccc1O,inconclusive: 48%
4,COCCn1cnnc1SCC(=O)c1ccc(S(=O)(=O)N2CCCC2)cc1,inconclusive: 34%
5,Cc1cccnc1NC(=S)NC(=O)/C=C/c1ccco1,inconclusive: 42.5%
6,O=c1[nH]c2ccc(S(=O)(=O)NCCO)cc2[nH]1,inconclusive: 44.8%
7,CCCc1[nH]nc2c1C(c1ccc(O)cc1OCC)C(C#N)=C(N)O2 (stereo not given),inconclusive: 18.2%
8,CN(C)S(=O)(=O)N1CCN(C(=O)c2ccccc2)CC1,inconclusive: 55.3%
9,COc1ccc(N2CCN(C(=O)c3ccc(Cl)c(S(=O)(=O)N4CCCC4)c3)CC2)cc1,inconclusive: 34%
10,CCC(C)c1ccc(NC(=O)C2CCCN(c3ncccn3)C2)cc1 (stereo not given),inconclusive: 4.06%
11,COc1ccc(Nc2nnc(SCC(=O)c3cc4ccccc4o3)s2)cc1,inconclusive: 61.4%
12,O=C(c1ccccc1Oc1ccc(C(F)(F)F)cc1[N+](=O)[O-])N1CCOCC1,inconclusive: 39.2%
13,Cc1cccc2sc(NNC(=O)c3cc(=O)c4ccccc4o3)nc12,inconclusive: 40.7%
14,S=C(NCCc1ccccc1)N1CCn2cccc2C1c1cccnc1 (stereo not given),inconclusive: 34.4%
15,CCCNC(=O)COC(=O)c1ccc(N2CCCC2)c([N+](=O)[O-])c1,inconclusive: 38.5%
16,Oc1cccc(C=NCc2ccccc2)c1,inactive: -4.5%
17,CCC(C(=O)NC(C)(C)C)N(Cc1cccs1)C(=O)CNS(=O)(=O)c1ccccc1 (stereo not given),inconclusive: 46.2%
18,CCCS(=O)(=O)C/C(N)=N/OC(=O)c1ccccc1Cl,inconclusive: 51.2%
19,O=C(Nc1ccc(N2CCOCC2)cc1)Nc1ccc2nc(-c3ccco3)c(-c3ccco3)nc2c1,inconclusive: 34.1%
20,Cn1nc(C(F)(F)F)c(C#N)c1N1CCN(c2cccc(C(F)(F)F)c2)CC1,inconclusive: 33.9%
21,CCC(C)NS(=O)(=O)c1ccc(S(=O)(=O)N2CC=C(c3ccc(F)cc3)CC2)cc1 (stereo not given),inconclusive: 38%
22,Cc1ccc(NC(=O)Nc2cnccn2)cc1C,inconclusive: 57.4%
23,Cc1c(C(=O)O)oc2c1C(O)CCC2 (stereo not given),inconclusive: 51.8%

# No new results follow: 2 of the compounds above.
row,Structure (SMILES),inhibition
16,Oc1cccc(C=NCc2ccccc2)c1,inactive: -4.5%
17,CCC(C(=O)NC(C)(C)C)N(Cc1cccs1)C(=O)CNS(=O)(=O)c1ccccc1 (stereo not given),inconclusive: 46.2%

# Further structures:

row,Structure (SMILES),inhibition
1,COc1ccccc1NC(=S)N1CCC(NC(=O)C23CC4CC(CC(C4)C2)C3)CC1,inconclusive: 33.4%
2,O=C(Nc1ccc(O)cc1)c1cc2ccccc2c(=O)s1,inconclusive: 60.5%
3,COc1ccccc1NC(=O)CNC(=O)c1ccc([N+](=O)[O-])cc1,inconclusive: 49.3%
4,CCOC(=O)c1cc(C)sc1NC(=O)C1CCC1,inconclusive: 33%
5,CCNC(=O)c1sc(=S)n(CC)c1N,inconclusive: 51.4%
6,COc1ccc(C(=O)COC(=O)CNC(=O)c2ccc(Cl)cc2Cl)c(OC)c1,inactive: 3.17%
7,O=C(c1noc2c1CCCC2)N1CCN(c2ccccc2)CC1,inconclusive: 42.3%
8,COc1ccc(/C=C\C(=O)CC(O)(c2ccccc2)C(F)(F)F)cc1 (stereo not given),inconclusive: 50.9%
9,Cn1c(=O)c2c(SCc3cccc(C(F)(F)F)c3)nc(-c3ccco3)nc2n(C)c1=O,inconclusive: 39.8%
10,Cc1ccc(Cl)cc1N1CCN(C(=O)c2ccc(CN3CCOCC3)cc2)CC1,inconclusive: 20.4%
11,COc1cc(CN2CCN(Cc3ccc(C)cc3)C(CCO)C2)cc(OC)c1O (stereo not given),inconclusive: 36.4%
12,Cc1ccccc1-n1c(C)nnc1SCC(=O)N(C)C1CCS(=O)(=O)C1 (stereo not given),inconclusive: 51.3%
13,CCc1nccn1C(=O)c1cnn2c(C(F)F)cc(-c3ccccc3)nc12,inconclusive: 39.5%
14,O=C(NCc1ccco1)c1ccc(=O)[nH]n1,inconclusive: 34.7%
15,Cc1ccc(-n2c(C)cc(C(=O)CSc3nncs3)c2C)cc1,inconclusive: 37%
16,COc1ccc(CN(CCCN2CCOCC2)S(=O)(=O)N(C)C)cc1OC,inconclusive: 19.4%
17,Nc1ncnc(Sc2ncccn2)c1[N+](=O)[O-],inconclusive: 37%
18,O=C(NCCCN1CCOCC1)c1ccc(CNS(=O)(=O)c2ccc(Br)cc2)cc1,inconclusive: 49.2%
19,CC(C)CN1CCNC(=O)C1CC(=O)NCc1cnn(-c2cccc(F)c2)c1 (stereo not given),inconclusive: 34.2%
20,COc1ccc(NC(=O)c2ccc3c(c2)C(=O)N(Cc2cccnc2)C3=O)c(OC)c1,inconclusive: 43.1%
21,O=S(=O)(N/N=C/c1ccc2c(c1)OCCO2)c1ccccc1,inconclusive: 53.2%
22,CCc1nnc(NC(=O)C(C)C)s1,inconclusive: 39.9%
23,Cc1ccc(SCC(=O)Nc2ccc(N3CCOCC3)cc2)cc1C,inactive: -8.83%

row,Structure (SMILES),inhibition
1,Cc1ccc(-c2nc3ncccn3c2Nc2ccc3c(c2)OCCO3)o1,inconclusive: 33.4%
2,CCOC(=O)c1ccc(N/C=C2\CCCCC2=O)cc1,inconclusive: 45.9%
3,Cc1cccc(NS(=O)(=O)c2cccc(C(=O)NNC(=O)c3ccccc3O)c2)c1,inconclusive: 34.3%
4,Cc1ccc(-n2c(C)cc(/C=c3/sc4nc5ccccc5n4c3=O)c2C)cc1,inconclusive: 55.9%
5,O=S(=O)(/C=C/c1ccccc1)N1CCN(c2cccc(Cl)c2)CC1,inactive: -3.95%
6,COC(=O)CN1C(=O)C2(C(C#N)=C(N)Oc3n[nH]c(-c4cccs4)c32)c2ccccc21 (stereo not given),inconclusive: 39.3%
7,CCc1ccc2[nH]c(=O)c(CN(Cc3ccccc3)Cc3nnnn3Cc3ccco3)cc2c1,inconclusive: 21.9%
8,C/C(=N\NS(=O)(=O)c1cccc([N+](=O)[O-])c1)c1cccnc1,inconclusive: 45.3%
9,COc1cc(-n2c(N)c(C(=O)NCc3ccco3)c3nc4ccccc4nc32)cc(OC)c1OC,inconclusive: 36.1%
10,Cc1ccc(C2/C(=C(/O)c3ccccc3)C(=O)C(=O)N2CCN2CCOCC2)o1 (stereo not given),inconclusive: 51.1%
11,COc1ccc(NC(=O)c2c(-c3ccccc3)noc2C)c(OC)c1,inconclusive: 45.8%
12,CCOC(=O)C1=C(C)N(Cc2ccc(C(=O)O)cc2)C(=O)NC1c1ccc([N+](=O)[O-])cc1 (stereo not given),inconclusive: 41%
13,CCn1c(=O)cc(SCC(=O)NCc2cccnc2)c2ccccc21,inconclusive: 33.9%
14,CN1CCc2nc(SCC(=O)Nc3ccc(F)cc3)c(C#N)cc2C1,inconclusive: 43.7%
15,O=C(CCCCCNS(=O)(=O)c1ccc(Br)cc1)NCCN1CCOCC1,inconclusive: 58.3%
16,O=C(O)CSc1nnc(-c2ccncc2)n1C1CCCCC1,inactive: -0.35%
17,Cc1cnc(C(=O)OCc2ccc(C#N)cc2)cn1,inconclusive: 54.9%
18,CC(C)CNC(=O)COC(=O)CCC(=O)c1ccc(F)cc1,inconclusive: 4.35%
19,CCOCCCn1c(C)nc2c(c1=O)c1nc3ccccc3nc1n2CCC1=CCCCC1,inconclusive: 34.3%
20,Cc1ccc(S(=O)(=O)Nc2cc(=O)[nH]c(SCC(=O)Nc3ccccc3Cl)n2)cc1,inconclusive: 45.8%
21,CCCCCCCCCCCCC(=O)CCCCC(=O)O,inactive: -6.1%
22,Cc1sc2nc(COC(=O)c3cccc(OC(F)F)c3)[nH]c(=O)c2c1C,inconclusive: 64.5%
23,O=C(COc1ccc([N+](=O)[O-])cc1)Nc1ccncc1,inconclusive: 60%

row,Structure (SMILES),inhibition
1,O=C(OCc1cc(=O)n2ccsc2n1)c1ccc(O)cc1O,inconclusive: 37.1%
2,CCN(c1ccc(NC(=O)COC(=O)c2cccs2)cc1)C(C)C,inconclusive: 50.8%
3,COc1ccccc1N1CCN(C(=O)c2sc3nc(-c4ccccc4)cn3c2C)CC1,inactive: -3.37%
4,O=C(O)c1cc2c(s1)CCCC2,inconclusive: 42.4%
5,O=C(NC(Cc1ccccc1)C(=O)O)/C(=C\c1ccco1)NC(=O)c1ccc(Br)cc1 (stereo not given),inconclusive: 34.4%
6,CC(C)(C)n1nnnc1C(c1cccs1)N1CCCC2(CCCCC2)C1 (stereo not given),inconclusive: 33.6%
7,Cc1cc(C)nc(/N=C2\NC(=O)CC3C(=O)NCCN23)n1 (stereo not given),inconclusive: 36.3%
8,CN(C)CCn1cnc2c(c1=N)C(c1ccccc1)c1ccc3ccccc3c1O2 (stereo not given),inactive: -7.72%
9,COc1cc2c(cc1OC)C(Cc1ccc(O)cc1)NCC2 (stereo not given),inactive: 16.4%
10,Nc1cc(-c2ccc(Cl)cc2)nn1S(=O)(=O)c1ccc(Cl)cc1,inconclusive: 47.8%
11,CC(C)(C)OC(=O)N1CCCN(C(=O)Nc2cccc(Cl)c2)CC1,inconclusive: 52.4%
12,S=C(Nc1cccc(Cl)c1)Nc1cccc2cnccc12,inconclusive: 34.3%
13,O=C(NC1CC2CCCC(C1)N2C(=O)Nc1ccccc1)C1CC1 (stereo not given),inconclusive: 41.9%
14,Oc1ccccc1C=NN1CCCCCC1,inactive: -3.73%
15,Cc1cnc(C(=O)NCCc2ccc(S(=O)(=O)NC(=O)NC3CCCCC3)cc2)cn1,inconclusive: 33.3%
16,O=C(Cc1cccs1)N/N=C/C=C/c1ccccc1,inactive: 4.16%
17,COC(=O)C1=C(C)N(CCc2ccc(OC)cc2)C(=O)C1,inconclusive: 61.3%
18,O=C(C(c1ccccc1)c1ccccc1)N1CC[C@@]2(O)CCCC[C@H]2C1,inconclusive: 48.2%
19,CCCc1ccc(S(=O)(=O)N2CCN(C(C)C(=O)NCc3ccc(OC)cc3)CC2)cc1 (stereo not given),inconclusive: 37.2%
20,CCOc1cc(/C=C2\SC(=O)N(c3ccc(O)cc3)C2=O)ccc1O,inconclusive: 33.8%
21,O=C(Nc1ccc(Cl)c([N+](=O)[O-])c1)c1ccc(NCCCN2CCOCC2)c([N+](=O)[O-])c1,inconclusive: 34%

# By substructure, the compounds so far with a tert-butyl group (3)
row,Structure (SMILES),inhibition
17,CCC(C(=O)NC(C)(C)C)N(Cc1cccs1)C(=O)CNS(=O)(=O)c1ccccc1 (stereo not given),inconclusive: 46.2%
6,CC(C)(C)n1nnnc1C(c1cccs1)N1CCCC2(CCCCC2)C1 (stereo not given),inconclusive: 33.6%
11,CC(C)(C)OC(=O)N1CCCN(C(=O)Nc2cccc(Cl)c2)CC1,inconclusive: 52.4%

# Reference: PubChem BioAssay AID1117319 (Southern Research Institute, 2015)
